Reference: patent publication US20100062997A1, “USE OF IDRAPARINUX FOR EXTENDED PROPHYLAXIS OF THROMBOEMBOLISM” (SANOFI-AVENTIS, priority 2008, published 2010)
At least one structure is not confirmed: it was looked up by name or label, or the drawing left a doubt.

System: patients with confirmed, symptomatic DVT or PE treated for 6 months with a VKA or idraparinux
Experiment: Double-blind, placebo-controlled study of 6 months extended thromboprophylaxis: symptomatic recurrent VTE
Assay type: in vivo
Conditions: for Recurrent VTE: idraparinux group
Experimental: A double-blind, placebo-controlled study evaluated patients who had completed 6 months of initial treatment for deep venous thrombosis (hereafter “DVT”) or pulmonary embolism (hereafter “PE”) and who were then randomly assigned to receive an additional 6 months of prophylaxis with idraparinux. The efficacy of this method of thromboprophylaxis was evaluated in these patients.
Eligible patients were those aged above or equal to 18 years, with confirmed, symptomatic DVT or PE and who had been treated for 6 months with a VKA (acenocoumarol or warfarin), either in previous van Gogh studies (see The van Gogh Investigators, N. Engl. J. Med., 2007, 357, 1094-104) or outside these studies, or with idraparinux (in van Gogh studies).
The diagnostic criteria for DVT were a calf trifurcation or a more proximal vein that were noncompressible on ultrasonography or an intraluminal filling defect on venography. For PE, the diagnostic criteria were an intraluminal filling defect in subsegmental or more proximal pulmonary arteries on spiral computed tomography (CT) or conventional pulmonary angiography, a high-probability finding on a ventilation-perfusion lung scan, or a nondiagnostic finding on a lung scan with objectively documented DVT (H. R. Büller et al., Ann. Intern. Med., 2004, 140, 867-73; The Matisse Investigators, N. Engl. J. Med., 2003, 349, 1695-702).
Patients were ineligible if they met one or more of the following criteria: an indication to continue anticoagulant therapy for the index DVT or PE beyond 6 months, other indications for prophylaxis with a VKA, pregnancy or breast-feeding, a creatinine clearance of less than 10 ml per minute, severe hepatic disease, bacterial endocarditis, active bleeding or a high risk of bleeding, uncontrolled hypertension (systolic blood pressure above 180 mm Hg or diastolic blood pressure above 110 mm Hg), or a life expectancy of less than 3 months.
Patients were randomized, with stratification according to study center and to the anticoagulant treatment received in the 6 months before randomization (idraparinux within the van Gogh studies or VKA within or outside the van Gogh studies). Randomization was to be performed not more than 1 hour before the administration of the first dose of the study drug.
Patients received a once-weekly subcutaneous dose of 2.5 mg of idraparinux or placebo with an identical appearance for 6 months (26 injections). In patients who had received idraparinux before randomization, the first dose of idraparinux or placebo was given 6 to 8 days after the last injection of the drug. In patients who had received a VKA before randomization, the first dose was given when the international normalized ratio (INR) was 3.0 or less. For patients with a creatinine clearance of less than 30 ml/min., the weekly idraparinux dose was 1.5 mg, with a first dose of 2.5 mg in patients who had received a VKA before randomization.
All patients were contacted after 1 week and at 3 and 6 months. […] At each contact, symptoms and signs of recurrent VTE were investigated.
All suspected outcome events were reviewed and classified by a central adjudication committee, whose members were unaware of study-group assignment.
The primary efficacy outcome was the incidence of symptomatic recurrence of VTE, defined as objectively documented recurrent PE, DVT or death attributed to PE. A diagnosis of recurrent VTE was accepted in the absence of an adequate objective test result if the investigator had treated the patient with therapeutic doses of heparin for more than 2 days or with a vena cava filter, thrombectomy or thrombolysis, or if recurrent VTE could not be ruled out. […]

## CO[C@H]1O[C@H](COS(=O)(=O)O)[C@@H](O[C@@H]2O[C@@H](C(=O)O)[C@@H](O[C@H]3O[C@H](COS(=O)(=O)O)[C@@H](O[C@@H]4O[C@H](C(=O)O)[C@@H](O[C@H]5O[C@H](COS(=O)(=O)O)[C@@H](OC)[C@H](OC)[C@H]5OC)[C@H](OC)[C@H]4OC)[C@H](OS(=O)(=O)O)[C@H]3OS(=O)(=O)O)[C@H](OC)[C@H]2OC)[C@H](OS(=O)(=O)O)[C@H]1OS(=O)(=O)O [Idraparinux, idraparinux]
2.5 mg s.c. once weekly for 6 months, month 6 after randomization, all randomized patients
  Recurrent VTE: 6/594 (1.0%) number of patients/total number (%)
Treatment before randomization: VKA outside study, month 6
  Recurrent VTE: 1/115 (0.9%) number of patients/total number (%)
Treatment before randomization: VKA within study, month 6
  Recurrent VTE: 2/224 (0.9%) number of patients/total number (%)
Treatment received before randomization: VKA, month 6
  Recurrent VTE: 3/339 (0.9%) number of patients/total number (%)
Treatment received before randomization: idraparinux, month 6
  Recurrent VTE: 3/255 (1.2%) number of patients/total number (%)
Placebo group, substance = treatment received for 6 months before randomization, month 6 after randomization
  Recurrent VTE after discontinuation of the treatment received before randomization: 2/268 (0.7%) number of patients/total number (%)
